Measurements taken from PubChem BioAssay AID540256 (National Center for Advancing Translational Sciences (NCATS), 2011).
Hit rate of the full screen: of about 300,000 compounds, about 3,700 (1.2%) were called active. This list was built around the results that the source calls inconclusive (neither active nor inactive); the mix of calls is not that of the screen. The call rests on the fitted dose curve; tested in HEK293 cells. Where the call is inconclusive, the potency comes from a doubtful curve fit.
On the % scale 0 is the no-effect control and ±100 the full control effect; potency means the concentration at half of the fitted maximal effect.

Assay: qHTS for Inhibitors of binding or entry into cells for Lassa Virus; further: nearly all actives have a fitted effect of over 50% in size
Settings: Lassa virus pseudotype entry inhibition, cell reporter; activity change, negative = inhibition: at 37.9 µM (top of the series) unless noted
In the case of `O=C(O)c1cccc(Nc2nc(-c3cc4ccccc4oc3=O)cs2)c1`, the Potency is reported as inconclusive: 2.82 µM [inhibitor, single point]. In the case of `O=C(C1CCCN(S(=O)(=O)c2ccc(F)cc2)C1)N(Cc1cccs1)C1CC1` (centres undefined), the Potency is reported as inconclusive: 35.5 µM [inhibitor, single point]. For `c1ccc2c(c1)Cc1cc3ccccc3nc1-2`, the Potency was inconclusive: 35.5 µM [inhibitor, single point]. With `CCCCc1nc2ccccc2c(=O)n1-c1ccccc1[N+](=O)[O-]` the “activity change, negative = inhibition” value was inactive: 0.265%. In the case of `COc1ccc(NS(=O)(=O)c2cccc(NC(=O)c3ccc(Cl)nc3)c2)cc1`, the Potency is reported as active: 5.01 µM. In the case of `CC1CCC(NC(=O)c2ccc3c(c2)OCO3)CC1` (centres undefined), the Potency is reported as active: 3.55 µM. In the case of `CCOC(=O)Cc1csc(NC(=O)COc2ccc(N(C)S(=O)(=O)c3cccs3)cc2)n1`, the “activity change, negative = inhibition” value is reported as inactive: -28%. With `COc1ccc(CCn2c3c(c(=O)[nH]c2=O)C(NC(=O)c2ccccc2F)(C(F)(F)F)C(=O)N3)cc1OC` (centres undefined) the “activity change, negative = inhibition” value was inactive: -1.09% [at 46.1 µM]. With `COc1ccc2nc(Nc3nc(CSc4nc5ccccc5[nH]4)cc(=O)[nH]3)nc(C)c2c1` the Potency was inconclusive: 11.2 µM [inhibitor, partial curve, poor fit]. For `CCOc1ccc(C(=O)OCC(=O)N2CCCC2)cc1`, the Potency was inconclusive: 31.6 µM [activator, single point]. With `COc1ccc(CCNC(=O)C(CC(C)C)N2Cc3ccccc3C2=O)c(OC)c1OC` (centres undefined) the “activity change, negative = inhibition” value was inactive: -24.5% [at 46.1 µM]. For `CCOc1ccc(S(=O)(=O)N2CCCC(C(=O)NCc3ccccc3)C2)cc1` (centres undefined), the “activity change, negative = inhibition” value was inactive: 12%. With `COCC1CCN(C(=O)c2ccc3oc(CCCc4ccccc4)nc3c2)C1` (centres undefined) the “activity change, negative = inhibition” value was inactive: 4.88%. With `COc1ccccc1C1C(C(=O)NCc2ccccc2)=C(C)Nc2ncnn21` (centres undefined) the “activity change, negative = inhibition” value was inactive: 8.51%. For `COc1ccc(-c2cn[nH]c2-c2ccc(OCc3ccccc3)cc2O)cc1OC`, the Potency was inconclusive: 11.2 µM [inhibitor, partial curve]. In the case of `CCCCCOC(=O)c1[nH]c2c(c1C)C(=O)C(C(=O)OC)C(C)C2` (centres undefined), the “activity change, negative = inhibition” value is reported as inactive: -19.4%. In the case of `CCOC(=O)C1CCN(C(=O)Nc2ccc(Cl)cc2)CC1`, the Potency is reported as inconclusive: 31.6 µM [activator, single point]. For `O=C(CSc1nc(-c2ccc(F)cc2)cs1)Nc1ccccn1`, the “activity change, negative = inhibition” value was inactive: 14.5%. For `CN1CCN(S(=O)(=O)c2ccc(CNC(=O)c3ccccc3)s2)CC1`, the Potency was inconclusive: 35.5 µM [activator, single point]. With `C#CC(C)(CC)NC(=O)Cn1nnc(-c2cccc(C(F)(F)F)c2)n1` (centres undefined) the Potency was inconclusive: 14.1 µM [inhibitor, single point]. With `BrC(=C\c1ccccc1)/C=N/Nc1nc2ccccc2[nH]1` the Potency was inconclusive: 4.61 µM [inhibitor, full curve]. With `CCC1CCCCN1CC(=O)Nc1cc(C)nn1-c1nc(C)cc(C)n1` (centres undefined) the Potency was inconclusive: 5.17 µM [inhibitor, partial curve, poor fit]. For `COc1ccc(Cc2nnc(SCC(=O)N(c3ccccc3)C(C)C)n(N)c2=O)cc1`, the Potency was inconclusive: 35.5 µM [inhibitor, single point]. For `O=C(NCc1ccccc1)C1CCCN(S(=O)(=O)c2cccc3nsnc23)C1` (centres undefined), the “activity change, negative = inhibition” value was inactive: 15.2% [at 46.1 µM]. With `O=C1COc2ccc(C(=O)c3ccccc3C(=O)NCc3ccco3)cc2N1` the Potency was inconclusive: 10.3 µM [inhibitor, partial curve, poor fit]. With `COc1ccccc1CNS(=O)(=O)c1ccc2c(c1)NC(=O)C(C)C(=O)N2` (centres undefined) the “activity change, negative = inhibition” value was inactive: 14.7% [at 46.1 µM]. In the case of `CCCCNC(=S)NNC(=O)c1csc(CC)c1`, the Potency is reported as inconclusive: 0.92 µM [activator, full curve, poor fit]. With `O=C(CSc1nnc(-c2ccncc2)n1CC1CCCO1)Nc1ccccc1Cl` (centres undefined) the Potency was inconclusive: 0.562 µM [inhibitor, partial curve, poor fit]. In the case of `CC(=O)Nc1ccc(/C=C/c2nc(-c3ccccc3O)n(-c3ccccc3)n2)cc1`, the Potency is reported as inconclusive: 4.47 µM [inhibitor, partial curve, poor fit]. With `CCOC(=O)c1sc(NC(=O)CSc2nc(C)cc(C)c2C#N)c(C#N)c1C` the Potency was inconclusive: 10 µM [activator, partial curve, poor fit]. For `CN(C)S(=O)(=O)c1cccc(NC(=O)CC23CC4CC(CC(C4)C2)C3)c1`, the Potency was inconclusive: 3.55 µM [inhibitor, partial curve, poor fit]. With `CCOC(=O)c1c(NC(=S)N2CCOCC2)sc(C)c1C` the Potency was inconclusive: 0.708 µM [inhibitor, single point]. With `CN1C/C(=C/c2ccncc2)C(=O)/C(=C/c2ccncc2)C1` the Potency was inconclusive: 0.562 µM [inhibitor, full curve, poor fit]. In the case of `O=C(Nc1nnc(-c2ccccc2)o1)c1cccc(S(=O)(=O)N2CCOCC2)c1`, the Potency is reported as inconclusive: 11.2 µM [inhibitor, partial curve, poor fit].
